In PMC9481461:
Results are given in words; binding and its absence hold for the method and conditions named. In cells and extracts the contact can be indirect. Some entries that bind do so weakly or less than the wild type. One block for each substance: values may come before it.

Chains of the proteins cited; added tags and fusions are not shown. Lines headed by an entry give the natural chain unless they say otherwise; changes in a name come on top.
UniProt Q6IAA8: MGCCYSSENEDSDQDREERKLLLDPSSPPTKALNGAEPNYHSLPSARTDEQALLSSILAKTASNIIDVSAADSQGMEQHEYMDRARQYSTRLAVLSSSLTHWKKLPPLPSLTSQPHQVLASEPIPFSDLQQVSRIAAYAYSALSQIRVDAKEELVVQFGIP
UniProt Q9NQL2: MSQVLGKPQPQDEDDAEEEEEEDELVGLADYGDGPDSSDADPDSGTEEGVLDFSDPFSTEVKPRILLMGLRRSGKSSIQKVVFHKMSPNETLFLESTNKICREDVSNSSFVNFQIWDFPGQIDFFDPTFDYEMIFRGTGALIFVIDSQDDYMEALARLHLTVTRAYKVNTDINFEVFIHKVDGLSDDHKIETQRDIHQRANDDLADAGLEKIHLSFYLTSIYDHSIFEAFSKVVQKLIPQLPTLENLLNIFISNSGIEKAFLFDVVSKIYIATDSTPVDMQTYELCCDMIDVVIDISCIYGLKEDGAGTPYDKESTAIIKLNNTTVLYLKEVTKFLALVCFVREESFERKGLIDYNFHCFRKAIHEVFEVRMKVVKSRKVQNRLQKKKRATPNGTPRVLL
UniProt Q7L523: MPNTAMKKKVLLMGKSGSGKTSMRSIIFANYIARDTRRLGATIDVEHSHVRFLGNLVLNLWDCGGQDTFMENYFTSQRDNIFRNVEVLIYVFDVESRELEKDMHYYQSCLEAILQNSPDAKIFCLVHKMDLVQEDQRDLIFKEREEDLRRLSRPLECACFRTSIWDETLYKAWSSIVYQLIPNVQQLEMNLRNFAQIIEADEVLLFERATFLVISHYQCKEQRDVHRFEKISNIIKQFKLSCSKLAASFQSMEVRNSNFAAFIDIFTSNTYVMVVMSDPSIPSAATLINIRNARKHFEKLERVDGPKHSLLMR
UniProt Q9HB90: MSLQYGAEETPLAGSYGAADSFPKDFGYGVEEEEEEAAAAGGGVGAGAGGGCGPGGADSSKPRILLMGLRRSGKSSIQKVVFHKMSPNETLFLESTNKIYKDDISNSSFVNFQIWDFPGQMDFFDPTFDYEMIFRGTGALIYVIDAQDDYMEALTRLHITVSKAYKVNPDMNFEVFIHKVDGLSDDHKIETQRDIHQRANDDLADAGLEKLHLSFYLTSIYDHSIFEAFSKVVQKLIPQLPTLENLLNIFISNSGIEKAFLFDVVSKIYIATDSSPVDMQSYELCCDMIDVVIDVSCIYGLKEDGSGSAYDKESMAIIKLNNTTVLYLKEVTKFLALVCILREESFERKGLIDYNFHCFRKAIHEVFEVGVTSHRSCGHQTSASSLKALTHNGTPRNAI
UniProt Q9P2J5: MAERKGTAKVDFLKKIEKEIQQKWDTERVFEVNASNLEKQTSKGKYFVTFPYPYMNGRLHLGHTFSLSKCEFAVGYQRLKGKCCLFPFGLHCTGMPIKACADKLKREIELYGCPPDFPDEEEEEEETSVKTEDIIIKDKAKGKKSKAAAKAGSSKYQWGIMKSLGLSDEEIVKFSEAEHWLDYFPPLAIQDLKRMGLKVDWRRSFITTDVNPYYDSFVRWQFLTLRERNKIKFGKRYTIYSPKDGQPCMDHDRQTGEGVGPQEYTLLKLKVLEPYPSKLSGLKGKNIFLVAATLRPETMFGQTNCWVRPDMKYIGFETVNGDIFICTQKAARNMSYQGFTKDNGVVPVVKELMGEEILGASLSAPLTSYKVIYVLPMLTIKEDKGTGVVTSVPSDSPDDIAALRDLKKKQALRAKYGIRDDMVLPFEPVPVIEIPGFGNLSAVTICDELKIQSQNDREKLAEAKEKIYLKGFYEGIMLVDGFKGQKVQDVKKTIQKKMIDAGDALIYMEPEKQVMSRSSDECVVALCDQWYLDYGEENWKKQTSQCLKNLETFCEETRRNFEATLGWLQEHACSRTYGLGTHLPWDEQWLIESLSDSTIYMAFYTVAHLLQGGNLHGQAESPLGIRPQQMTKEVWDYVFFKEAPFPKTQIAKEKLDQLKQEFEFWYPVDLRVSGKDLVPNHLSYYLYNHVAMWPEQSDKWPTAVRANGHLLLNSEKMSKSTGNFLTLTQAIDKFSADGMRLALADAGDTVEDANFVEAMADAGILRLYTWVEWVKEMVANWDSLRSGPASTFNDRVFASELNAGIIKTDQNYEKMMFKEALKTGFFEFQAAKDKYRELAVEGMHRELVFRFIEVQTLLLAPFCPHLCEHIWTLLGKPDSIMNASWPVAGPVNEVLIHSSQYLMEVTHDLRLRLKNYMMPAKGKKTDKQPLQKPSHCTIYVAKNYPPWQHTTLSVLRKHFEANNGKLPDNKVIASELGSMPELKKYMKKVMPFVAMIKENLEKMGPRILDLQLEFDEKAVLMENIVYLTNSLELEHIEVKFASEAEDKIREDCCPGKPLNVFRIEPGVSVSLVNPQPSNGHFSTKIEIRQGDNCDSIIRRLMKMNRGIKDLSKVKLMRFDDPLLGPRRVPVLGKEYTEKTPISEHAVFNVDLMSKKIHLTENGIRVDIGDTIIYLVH
UniProt Q8N122: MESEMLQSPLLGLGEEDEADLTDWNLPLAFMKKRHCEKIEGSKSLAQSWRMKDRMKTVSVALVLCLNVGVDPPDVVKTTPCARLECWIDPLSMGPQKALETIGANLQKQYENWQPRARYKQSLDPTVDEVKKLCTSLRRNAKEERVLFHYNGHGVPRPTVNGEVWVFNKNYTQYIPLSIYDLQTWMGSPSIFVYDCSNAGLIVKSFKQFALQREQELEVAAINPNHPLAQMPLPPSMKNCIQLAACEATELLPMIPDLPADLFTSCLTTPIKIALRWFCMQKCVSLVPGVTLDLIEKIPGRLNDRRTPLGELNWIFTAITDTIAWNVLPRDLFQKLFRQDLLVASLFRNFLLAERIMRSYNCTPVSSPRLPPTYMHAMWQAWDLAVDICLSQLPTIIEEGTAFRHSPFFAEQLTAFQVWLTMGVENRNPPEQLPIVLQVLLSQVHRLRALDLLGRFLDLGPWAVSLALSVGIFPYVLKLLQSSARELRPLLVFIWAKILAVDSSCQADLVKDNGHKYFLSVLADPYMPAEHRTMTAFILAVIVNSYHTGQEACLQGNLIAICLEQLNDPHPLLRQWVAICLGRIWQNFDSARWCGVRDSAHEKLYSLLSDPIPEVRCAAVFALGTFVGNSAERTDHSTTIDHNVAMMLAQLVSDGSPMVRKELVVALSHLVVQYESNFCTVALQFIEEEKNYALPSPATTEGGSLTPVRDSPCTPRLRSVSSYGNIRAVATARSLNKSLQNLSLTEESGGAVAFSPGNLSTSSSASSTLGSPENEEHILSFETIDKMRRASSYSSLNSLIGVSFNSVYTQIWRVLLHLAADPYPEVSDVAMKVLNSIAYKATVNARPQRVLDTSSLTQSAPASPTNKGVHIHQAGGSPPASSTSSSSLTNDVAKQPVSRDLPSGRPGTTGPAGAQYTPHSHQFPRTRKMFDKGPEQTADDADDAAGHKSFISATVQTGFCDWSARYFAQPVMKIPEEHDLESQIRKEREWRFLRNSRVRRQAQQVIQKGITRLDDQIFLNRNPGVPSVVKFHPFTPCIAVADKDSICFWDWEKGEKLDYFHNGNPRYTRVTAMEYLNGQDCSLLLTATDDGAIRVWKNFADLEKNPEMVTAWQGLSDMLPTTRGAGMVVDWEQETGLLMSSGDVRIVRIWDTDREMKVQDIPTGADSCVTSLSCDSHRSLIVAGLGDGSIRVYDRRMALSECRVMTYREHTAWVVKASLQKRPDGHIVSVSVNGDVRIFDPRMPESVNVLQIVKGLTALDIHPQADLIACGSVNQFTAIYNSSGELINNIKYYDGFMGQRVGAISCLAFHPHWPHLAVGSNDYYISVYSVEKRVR
UniProt P19532: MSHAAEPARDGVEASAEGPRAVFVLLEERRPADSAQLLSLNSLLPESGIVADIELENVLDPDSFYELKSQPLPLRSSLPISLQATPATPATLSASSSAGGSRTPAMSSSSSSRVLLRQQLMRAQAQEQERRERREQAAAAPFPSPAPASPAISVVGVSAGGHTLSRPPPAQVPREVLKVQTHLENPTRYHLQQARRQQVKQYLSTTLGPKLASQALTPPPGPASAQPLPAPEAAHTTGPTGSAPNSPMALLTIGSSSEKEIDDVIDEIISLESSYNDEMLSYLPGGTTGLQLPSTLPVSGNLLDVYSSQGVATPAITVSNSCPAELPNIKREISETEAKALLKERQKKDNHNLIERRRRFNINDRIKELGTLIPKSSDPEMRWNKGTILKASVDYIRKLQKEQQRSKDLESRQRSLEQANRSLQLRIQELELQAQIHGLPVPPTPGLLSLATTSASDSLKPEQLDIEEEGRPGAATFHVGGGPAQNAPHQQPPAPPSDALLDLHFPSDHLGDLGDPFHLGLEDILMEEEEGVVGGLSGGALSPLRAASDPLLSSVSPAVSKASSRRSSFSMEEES

Columns and labels:
FLAG-tagged p18/LAMTOR1 = FLAG-tagged p18/LAMTOR1 (UniProt Q6IAA8); assay: co-IP; HEK293FT qKO cells transiently expressing FLAG-p18 or FLAG-Luc, and HA-RagA with HA-RagC, HA-RagD, HA-RagDCD or HA-RagC mutants; lysis in 50 mM Tris pH 7.5, 0.3% CHAPS, 150 mM NaCl; anti-FLAG M2 affinity gel 3 h at 4 °C; immunoblot
FLAG-tagged RagD (human) [1] = target: FLAG-tagged RagD (human) (UniProt Q9NQL2); assay: co-IP; HEK293FT qKO cells transiently expressing HA-RagA with FLAG-RagC, FLAG-RagD or FLAG-Luc; lysis in 50 mM Tris pH 7.5, 0.3% CHAPS, 150 mM NaCl; anti-FLAG M2 affinity gel 3 h at 4 °C; immunoblot
FLAG-tagged RagD (human) [2] = target: FLAG-tagged RagD (human) (UniProt Q9NQL2); assay: co-IP; HEK293FT qKO cells transiently expressing FLAG-RagA/C, FLAG-RagA/D or FLAG-Luc; endogenous partners detected by immunoblot; lysis in 50 mM Tris pH 7.5, 0.3% CHAPS, 150 mM NaCl; anti-FLAG M2 affinity gel 3 h at 4 °C
FLAG-tagged RagA (human) = FLAG-tagged RagA (human) (UniProt Q7L523); assay: as above
FLAG-tagged RagC (human) = FLAG-tagged RagC (human) (UniProt Q9HB90); assay: as above

binding (FLAG-tagged p18/LAMTOR1): binds
Substance: HA-tagged RagD (from UniProt Q9NQL2-1 1-400)

binding (FLAG-tagged RagD (human) [1]): binds
Substance: HA-tagged RagA (from UniProt Q7L523 1-313)

binding (FLAG-tagged RagD (human) [2]): binds
Substance: leucyl-tRNA synthetase (LARS) (from UniProt Q9P2J5 1-1176)

More lines, now with the values behind:

Substance: Raptor (from UniProt Q8N122 1-1335)
binding (FLAG-tagged RagD (human) [2]): binds

Substance: transcription factor E3 (TFE3) (from UniProt P19532 1-575)
binding (FLAG-tagged RagA (human)): binds
binding (FLAG-tagged RagC (human)): binds
binding (FLAG-tagged RagD (human) [2]): binds
